Source: publication PMC12179603
Results are given in words; binding and its absence hold for the method and conditions named. Binding seen in cells or lysates may run through a third protein. A result given as binding can be weak or reduced; the word gives no strength. Sequences can lack the tags named with a protein.

By UniProt entry, the sequences of proteins in these tests, tags left out. Where a name states a change or a piece, a line headed by the entry shows the natural chain unless it says otherwise.
UniProt Q965X6: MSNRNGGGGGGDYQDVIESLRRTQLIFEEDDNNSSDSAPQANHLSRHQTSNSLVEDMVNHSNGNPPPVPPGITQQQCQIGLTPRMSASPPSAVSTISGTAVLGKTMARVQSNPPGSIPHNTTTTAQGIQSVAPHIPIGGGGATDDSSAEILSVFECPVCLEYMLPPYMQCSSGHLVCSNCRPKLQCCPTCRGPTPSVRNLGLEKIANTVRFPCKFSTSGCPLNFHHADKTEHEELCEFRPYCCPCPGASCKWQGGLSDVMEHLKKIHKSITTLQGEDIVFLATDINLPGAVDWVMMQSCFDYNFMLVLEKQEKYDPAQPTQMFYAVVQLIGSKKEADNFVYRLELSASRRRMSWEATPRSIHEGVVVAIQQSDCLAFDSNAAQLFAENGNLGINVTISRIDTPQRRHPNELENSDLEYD

Tests used:
[1] = target: T1, DVE-1::GFP(KI) (C. elegans (endogenous in worms)) (UniProt Q86MI0); assay: co-IP; C. elegans worm lysates (with or without 10 μM MG132 before lysis); GFP-Trap Agarose (anti-GFP nanobody) overnight at 4 °C; washes with 50 mM Tris-HCl pH 8.0, 300 mM NaCl; blot with anti-GFP and anti-SIAH-1
T1 sequence: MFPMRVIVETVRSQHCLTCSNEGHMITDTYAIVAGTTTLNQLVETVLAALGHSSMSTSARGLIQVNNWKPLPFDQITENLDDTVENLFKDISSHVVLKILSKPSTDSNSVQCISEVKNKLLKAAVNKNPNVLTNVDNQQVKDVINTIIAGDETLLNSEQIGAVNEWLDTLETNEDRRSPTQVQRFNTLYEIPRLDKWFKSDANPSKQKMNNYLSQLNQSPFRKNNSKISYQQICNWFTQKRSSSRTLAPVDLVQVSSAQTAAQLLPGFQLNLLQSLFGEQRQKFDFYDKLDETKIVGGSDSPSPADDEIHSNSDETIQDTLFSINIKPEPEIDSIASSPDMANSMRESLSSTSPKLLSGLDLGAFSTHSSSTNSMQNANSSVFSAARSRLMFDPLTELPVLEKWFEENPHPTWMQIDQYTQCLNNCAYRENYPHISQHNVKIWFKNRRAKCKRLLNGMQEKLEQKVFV

[2] = target: GST-SIAH-1(ΔE3) (C. elegans); assay: pull-down; 5 μg purified GST fusion on glutathione-Sepharose beads incubated with HEK293T lysates holding Myc-tagged DVE-1 constructs; washes with 50 mM Tris-HCl pH 7.6, 250 mM NaCl, 0.5% NP-40, 1 mM EDTA; blot with anti-Myc; only the target purified

“SIAH-1(ΔE3) (endogenous, siah-1(syb4782) mutant) (from UniProt Q965X6) (enzyme)” was tested, and the binding [1] was “binds”.

B1: Myc-DVE-1 (protein, UniProt Q86MI0 1-468)
chain: MFPMRVIVETVRSQHCLTCSNEGHMITDTYAIVAGTTTLNQLVETVLAALGHSSMSTSARGLIQVNNWKPLPFDQITENLDDTVENLFKDISSHVVLKILSKPSTDSNSVQCISEVKNKLLKAAVNKNPNVLTNVDNQQVKDVINTIIAGDETLLNSEQIGAVNEWLDTLETNEDRRSPTQVQRFNTLYEIPRLDKWFKSDANPSKQKMNNYLSQLNQSPFRKNNSKISYQQICNWFTQKRSSSRTLAPVDLVQVSSAQTAAQLLPGFQLNLLQSLFGEQRQKFDFYDKLDETKIVGGSDSPSPADDEIHSNSDETIQDTLFSINIKPEPEIDSIASSPDMANSMRESLSSTSPKLLSGLDLGAFSTHSSSTNSMQNANSSVFSAARSRLMFDPLTELPVLEKWFEENPHPTWMQIDQYTQCLNNCAYRENYPHISQHNVKIWFKNRRAKCKRLLNGMQEKLEQKVFV
With B1 the binding [2] was “binds”.
